Paper PMC5586252, “PP2A-B′ holoenzyme substrate recognition, regulation and role in cytokinesis” (Cell Discovery, 2017)

Molecular target: T1, FLAG-Cyk4 (human) (UniProt Q9H0H5)
T1 sequence: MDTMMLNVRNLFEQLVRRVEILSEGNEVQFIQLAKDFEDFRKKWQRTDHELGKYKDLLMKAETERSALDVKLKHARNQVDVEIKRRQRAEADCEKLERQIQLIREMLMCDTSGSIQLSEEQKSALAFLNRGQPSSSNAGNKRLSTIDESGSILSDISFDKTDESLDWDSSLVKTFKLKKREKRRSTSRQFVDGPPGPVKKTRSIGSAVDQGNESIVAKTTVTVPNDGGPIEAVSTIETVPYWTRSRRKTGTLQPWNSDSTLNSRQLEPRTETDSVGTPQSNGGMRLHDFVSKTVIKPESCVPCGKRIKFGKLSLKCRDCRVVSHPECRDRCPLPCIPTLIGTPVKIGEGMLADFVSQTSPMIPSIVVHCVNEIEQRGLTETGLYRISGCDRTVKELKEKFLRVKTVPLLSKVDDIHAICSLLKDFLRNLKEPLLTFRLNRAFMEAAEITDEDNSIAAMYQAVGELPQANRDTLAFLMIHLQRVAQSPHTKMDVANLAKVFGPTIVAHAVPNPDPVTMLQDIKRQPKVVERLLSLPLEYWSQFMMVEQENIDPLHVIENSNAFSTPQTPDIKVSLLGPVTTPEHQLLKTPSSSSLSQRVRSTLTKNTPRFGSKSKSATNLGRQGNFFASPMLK
Experiment: co-IP; HeLa transfected with FLAG-Cyk4 and V5-CIP2A, arrested with 100 μM monastrol, solvent control, collected 0–90 min after removal of monastrol; anti-FLAG IP, PP2Ac blotted

binding: binds
Substance: PP2Ac (PP2A catalytic C-subunit), endogenous (from UniProt P67775)

Results are given in words; binding and its absence hold for the method and conditions named. In cells and extracts the contact can be indirect. Binding calls can cover weak binding; strength is not graded here. Sequences can lack the tags named with a protein.
